Measured data: PubChem BioAssay AID1159578 (Peter MacCallum Cancer Centre, 2015)

- Test: 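Knock-downs that alter how fast lymphatic endothelial cells migrate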 (primary screen)
- Cells: human lymphatic endothelial cells
- Reagents: siRNA pool against human genes, 40 nM
- Timing: 48 h after transfection
- Measured: 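Cells stained with dye and imaged after a scratch; covered wound area and nuclei counted, duplicates averaged, migration set against mock wells and turned into a robust z-score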
- Reading the numbers: migration robust z-score: higher = faster migration into the scratch; nuclei per well: higher = more cells in the well
- Hit rule: 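Pools averaging fewer than 3300 nuclei are never called; remaining pools count as changed when migration robust z lies outside -2 to 2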
- Calls: active = migration changed; inactive = no migration change, or too few cells
This is a random part of about 18,000 reagents tested. About 1,030 of them (5.7%) were called active. 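Inactive calls also include pools with fewer than 3300 nuclei, whose migration was not assessed.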 Raw values are not corrected between plates. Reagents against one gene are numbered here. Not all columns of the deposit are shown. No sequences are given here.

gene | reagent | migration robust z-score | nuclei per well, duplicate mean | outcome
HOXA11 | 1 | -0.08 | 7056 | inactive
GDA | 1 | 0.68 | 6269 | inactive
TMEM106A | 1 | 1.71 | 6104 | inactive
PSMC1 | 1 | -0.7 | 5519 | inactive
ESYT2 | 1 | -0.25 | 6830 | inactive
MAP4K1 | 1 | -1.5 | 5329 | inactive
CAT | 1 | 1.04 | 6872 | inactive
CIT | 1 | -1.12 | 5284 | inactive
SIGLEC11 | 1 | 1.37 | 4926 | inactive
SMCO4 | 1 | 0.42 | 6542 | inactive
NAT9 | 1 | 0.36 | 4269 | inactive
TTLL2 | 1 | -1.18 | 4377 | inactive
MPPED1 | 1 | 2.17 | 5837 | active
NR0B1 | 1 | -0.94 | 5736 | inactive
MYO16 | 1 | -0.2 | 5888 | inactive
PRXL2A | 1 | 0.71 | 5700 | inactive
PFDN6 | 1 | -1.21 | 6166 | inactive
ZBTB7A | 1 | 1.09 | 6562 | inactive
KIF2C | 1 | 0.64 | 6533 | inactive
ITSN1 | 1 | -0.08 | 5810 | inactive
IFNL3 | 1 | -0.68 | 5928 | inactive
ALKBH4 | 1 | 0.68 | 7198 | inactive
DEFB115 | 1 | -0.09 | 4980 | inactive
KIF5C | 1 | 1.5 | 5868 | inactive
IPCEF1 | 1 | -0.1 | 6354 | inactive
CR1 | 1 | 0.6 | 5548 | inactive
TRAIP | 1 | -1.86 | 5308 | inactive
MECOM | 1 | 0.65 | 6308 | inactive
MECOM | 2 | 0.34 | 5838 | inactive
C1orf50 | 1 | -0.4 | 5424 | inactive
DGKB | 1 | 0.18 | 7390 | inactive
ECM2 | 1 | 2.22 | 6416 | active
LECT2 | 1 | 1.52 | 7199 | inactive
ARSG | 1 | -1.3 | 4262 | inactive
LINC02914 | 1 | -1.45 | 5878 | inactive
SLC35D4 | 1 | 0.32 | 4848 | inactive
RABEP2 | 1 | -1.77 | 5694 | inactive
MAPKAPK2 | 1 | -2.44 | 3830 | active
ENTREP1 | 1 | -0.68 | 4632 | inactive

Active calls, among the entries above:
gene | reagent | migration robust z-score | nuclei per well, duplicate mean | outcome
MPPED1 | 1 | 2.17 | 5837 | active
ECM2 | 1 | 2.22 | 6416 | active
MAPKAPK2 | 1 | -2.44 | 3830 | active
